{"sequences": {"note": "Chains of the proteins cited; added tags and fusions are not shown. Lines headed by an entry give the natural chain unless they say otherwise; changes in a name come on top. Residues count along the entry.", "UniProt P48357, residues 22-1165": "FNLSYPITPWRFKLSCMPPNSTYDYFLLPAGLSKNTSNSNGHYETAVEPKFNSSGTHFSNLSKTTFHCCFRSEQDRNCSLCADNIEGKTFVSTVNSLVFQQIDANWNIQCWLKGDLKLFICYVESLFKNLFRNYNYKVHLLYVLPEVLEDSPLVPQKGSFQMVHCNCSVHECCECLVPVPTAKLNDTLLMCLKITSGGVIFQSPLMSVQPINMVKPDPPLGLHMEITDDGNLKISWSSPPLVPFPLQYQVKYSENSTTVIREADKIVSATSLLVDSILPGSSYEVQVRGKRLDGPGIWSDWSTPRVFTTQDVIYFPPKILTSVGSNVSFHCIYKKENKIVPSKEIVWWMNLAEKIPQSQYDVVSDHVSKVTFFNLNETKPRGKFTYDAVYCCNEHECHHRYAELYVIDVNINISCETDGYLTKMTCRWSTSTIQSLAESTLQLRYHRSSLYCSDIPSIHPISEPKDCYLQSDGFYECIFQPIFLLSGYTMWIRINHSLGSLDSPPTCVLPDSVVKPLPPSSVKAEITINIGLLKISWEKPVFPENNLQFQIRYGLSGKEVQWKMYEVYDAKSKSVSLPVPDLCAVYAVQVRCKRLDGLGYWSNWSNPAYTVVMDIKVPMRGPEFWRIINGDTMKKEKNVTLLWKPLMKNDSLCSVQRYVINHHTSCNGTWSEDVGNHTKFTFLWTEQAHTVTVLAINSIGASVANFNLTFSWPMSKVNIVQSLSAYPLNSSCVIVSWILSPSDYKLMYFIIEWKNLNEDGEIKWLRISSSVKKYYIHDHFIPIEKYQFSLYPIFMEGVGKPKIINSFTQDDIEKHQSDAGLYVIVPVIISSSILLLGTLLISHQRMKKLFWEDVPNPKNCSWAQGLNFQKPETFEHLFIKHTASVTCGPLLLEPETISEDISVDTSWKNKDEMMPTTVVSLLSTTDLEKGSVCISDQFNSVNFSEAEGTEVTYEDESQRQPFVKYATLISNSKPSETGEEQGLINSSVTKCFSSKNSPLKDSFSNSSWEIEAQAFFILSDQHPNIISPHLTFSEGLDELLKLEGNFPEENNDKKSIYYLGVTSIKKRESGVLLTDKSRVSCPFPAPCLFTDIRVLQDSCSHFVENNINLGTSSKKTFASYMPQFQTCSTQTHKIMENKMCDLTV", "UniProt P41159": "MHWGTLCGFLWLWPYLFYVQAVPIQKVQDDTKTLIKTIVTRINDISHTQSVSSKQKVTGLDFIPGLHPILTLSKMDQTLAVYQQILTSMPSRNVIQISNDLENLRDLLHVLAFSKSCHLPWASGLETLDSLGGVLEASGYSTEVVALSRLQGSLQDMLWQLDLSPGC"}, "source": "patent US20060205660A1", "key": {"[1]": {"molecular_target": "human OB receptor (human) (UniProt P48357)", "experiment": "flow cytometry on 293 cells; competitor of OB-IgG-1"}, "[2]": {"molecular_target": "human OB receptor (human) (UniProt P48357)", "experiment": "panning of transfected COSN cells; competitor of OB-IgG-1"}}, "note": "Results are given in words; binding and its absence hold for the method and conditions named. Some results given as binding are weak or reduced against the parent protein; the word gives no strength.", "data": [{"substance": "bacterially expressed human OB protein (from UniProt P41159 22-167) (ligand)", "values": [{"measurement": "binding", "setting": "[1]", "result": "binds"}, {"measurement": "binding", "setting": "[2]", "result": "binds"}]}]}
